# Laboratory results: publication PMC10617981
# Chains of the proteins cited; added tags and fusions are not shown.
# UniProt Q7KZF4: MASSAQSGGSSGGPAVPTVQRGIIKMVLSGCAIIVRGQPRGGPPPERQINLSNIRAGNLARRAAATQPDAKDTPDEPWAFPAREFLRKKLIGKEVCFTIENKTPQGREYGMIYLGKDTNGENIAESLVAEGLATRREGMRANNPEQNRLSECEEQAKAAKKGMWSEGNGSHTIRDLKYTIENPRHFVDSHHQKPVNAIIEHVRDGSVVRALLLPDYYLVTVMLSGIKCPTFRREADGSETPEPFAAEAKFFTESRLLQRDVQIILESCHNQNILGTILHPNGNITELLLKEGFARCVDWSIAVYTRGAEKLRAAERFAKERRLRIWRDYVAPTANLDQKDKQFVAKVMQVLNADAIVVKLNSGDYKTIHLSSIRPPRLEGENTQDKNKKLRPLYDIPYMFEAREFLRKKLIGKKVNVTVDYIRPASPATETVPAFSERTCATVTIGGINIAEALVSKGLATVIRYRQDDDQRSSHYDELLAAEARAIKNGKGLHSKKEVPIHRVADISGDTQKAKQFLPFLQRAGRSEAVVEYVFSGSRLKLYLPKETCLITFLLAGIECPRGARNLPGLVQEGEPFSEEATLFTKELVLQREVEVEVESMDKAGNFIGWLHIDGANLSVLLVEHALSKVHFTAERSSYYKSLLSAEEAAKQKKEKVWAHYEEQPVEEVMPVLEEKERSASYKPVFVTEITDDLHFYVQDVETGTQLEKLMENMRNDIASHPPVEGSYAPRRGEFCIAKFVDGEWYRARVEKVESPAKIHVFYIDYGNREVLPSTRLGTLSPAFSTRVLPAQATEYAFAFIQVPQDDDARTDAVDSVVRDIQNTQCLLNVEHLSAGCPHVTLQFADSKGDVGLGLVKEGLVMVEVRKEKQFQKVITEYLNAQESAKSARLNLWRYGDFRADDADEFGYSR
# These are yes or no findings as the source states them, for the method shown. In cells and extracts the contact can be indirect. Here binding means that the protein was enriched with, or labelled near, the bait; the list need not be complete.
# B1: metadherin (MTDH) (protein, UniProt Q86UE4 1-582)
# chain: MAARSWQDELAQQAEEGSARLREMLSVGLGFLRTELGLDLGLEPKRYPGWVILVGTGALGLLLLFLLGYGWAAACAGARKKRRSPPRKREEAAAVPAAAPDDLALLKNLRSEEQKKKNRKKLSEKPKPNGRTVEVAEGEAVRTPQSVTAKQPPEIDKKNEKSKKNKKKSKSDAKAVQNSSRHDGKEVDEGAWETKISHREKRQQRKRDKVLTDSGSLDSTIPGIENTITVTTEQLTTASFPVGSKKNKGDSHLNVQVSNFKSGKGDSTLQVSSGLNENLTVNGGGWNEKSVKLSSQISAGEEKWNSVSPASAGKRKTEPSAWSQDTGDANTNGKDWGRSWSDRSIFSGIGSTAEPVSQSTTSDYQWDVSRNQPYIDDEWSGLNGLSSADPNSDWNAPAEEWGNWVDEERASLLKSQEPIPDDQKVSDDDKEKGEGALPTGKSKKKKKKKKKQGEDNSTAQDTEELEKEIREDLPVNTSKTRPKQEKAFSLKTISTSDPAEVLVKNSQPIKTLPPATSTEPSVILSKSDSDKSSSQVPPILQETDKSKSNTKQNSVPPSQTKSETSWESPKQIKKKKKARRET
# Target: staphylococcal nuclease domain-containing protein 1 (SND1), endogenous (human (endogenous in A549^ACE2)) (UniProt Q7KZF4)
# Test: affinity purification with mass spectrometry
binder,measurement,value
B1,binding,binds
